# The other results are listed elsewhere or left out.
# Chains of the proteins cited; added tags and fusions are not shown. Lines headed by an entry give the natural chain unless they say otherwise; changes in a name come on top.
# UniProt Q96C11: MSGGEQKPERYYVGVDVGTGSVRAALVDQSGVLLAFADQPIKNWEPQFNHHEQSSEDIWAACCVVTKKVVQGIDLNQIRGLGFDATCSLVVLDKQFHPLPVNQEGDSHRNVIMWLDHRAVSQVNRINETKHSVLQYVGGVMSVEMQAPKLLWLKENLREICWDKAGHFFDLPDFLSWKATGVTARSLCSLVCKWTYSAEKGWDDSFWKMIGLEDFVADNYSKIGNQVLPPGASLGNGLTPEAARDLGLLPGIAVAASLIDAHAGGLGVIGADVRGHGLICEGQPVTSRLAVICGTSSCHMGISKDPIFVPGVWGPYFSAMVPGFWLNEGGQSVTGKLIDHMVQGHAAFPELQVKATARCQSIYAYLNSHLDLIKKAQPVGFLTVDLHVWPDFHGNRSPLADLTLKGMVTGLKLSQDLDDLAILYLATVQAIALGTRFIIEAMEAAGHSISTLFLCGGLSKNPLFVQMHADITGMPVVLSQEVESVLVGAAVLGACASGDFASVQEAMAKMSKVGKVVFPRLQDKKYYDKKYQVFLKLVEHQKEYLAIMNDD
# UniProt Q9UHY8: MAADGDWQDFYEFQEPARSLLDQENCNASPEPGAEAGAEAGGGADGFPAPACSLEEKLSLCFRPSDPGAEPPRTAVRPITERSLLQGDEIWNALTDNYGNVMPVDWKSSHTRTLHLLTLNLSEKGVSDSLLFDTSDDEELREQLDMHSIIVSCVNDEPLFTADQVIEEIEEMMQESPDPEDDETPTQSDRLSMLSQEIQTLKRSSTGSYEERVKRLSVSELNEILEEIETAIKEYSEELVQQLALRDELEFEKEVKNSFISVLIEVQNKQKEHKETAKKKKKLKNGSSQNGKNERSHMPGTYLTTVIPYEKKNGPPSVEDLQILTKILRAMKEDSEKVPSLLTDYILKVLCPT
# UniProt P22087: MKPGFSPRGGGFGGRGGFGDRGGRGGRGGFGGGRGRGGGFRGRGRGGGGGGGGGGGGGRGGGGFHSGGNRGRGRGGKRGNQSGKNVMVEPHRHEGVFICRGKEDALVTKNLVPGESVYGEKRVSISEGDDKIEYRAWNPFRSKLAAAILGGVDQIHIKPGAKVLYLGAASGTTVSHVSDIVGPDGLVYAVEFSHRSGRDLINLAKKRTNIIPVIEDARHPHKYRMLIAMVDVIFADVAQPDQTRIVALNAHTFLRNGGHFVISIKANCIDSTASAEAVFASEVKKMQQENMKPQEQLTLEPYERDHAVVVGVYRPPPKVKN
# UniProt Q9H479: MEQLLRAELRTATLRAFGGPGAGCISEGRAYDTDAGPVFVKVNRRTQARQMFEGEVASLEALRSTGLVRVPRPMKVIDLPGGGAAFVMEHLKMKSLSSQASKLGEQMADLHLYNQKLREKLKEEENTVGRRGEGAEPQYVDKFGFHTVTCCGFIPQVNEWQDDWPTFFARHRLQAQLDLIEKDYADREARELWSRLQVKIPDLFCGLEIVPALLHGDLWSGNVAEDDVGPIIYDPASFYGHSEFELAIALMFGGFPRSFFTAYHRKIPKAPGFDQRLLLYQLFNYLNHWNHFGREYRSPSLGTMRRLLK
# UniProt Q6P4F2: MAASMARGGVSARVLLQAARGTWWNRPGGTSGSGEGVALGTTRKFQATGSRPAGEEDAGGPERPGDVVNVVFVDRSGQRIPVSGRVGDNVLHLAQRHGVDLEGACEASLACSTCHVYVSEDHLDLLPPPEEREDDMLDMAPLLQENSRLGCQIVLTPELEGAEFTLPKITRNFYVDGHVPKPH
# UniProt P39748, whole entry, looked up: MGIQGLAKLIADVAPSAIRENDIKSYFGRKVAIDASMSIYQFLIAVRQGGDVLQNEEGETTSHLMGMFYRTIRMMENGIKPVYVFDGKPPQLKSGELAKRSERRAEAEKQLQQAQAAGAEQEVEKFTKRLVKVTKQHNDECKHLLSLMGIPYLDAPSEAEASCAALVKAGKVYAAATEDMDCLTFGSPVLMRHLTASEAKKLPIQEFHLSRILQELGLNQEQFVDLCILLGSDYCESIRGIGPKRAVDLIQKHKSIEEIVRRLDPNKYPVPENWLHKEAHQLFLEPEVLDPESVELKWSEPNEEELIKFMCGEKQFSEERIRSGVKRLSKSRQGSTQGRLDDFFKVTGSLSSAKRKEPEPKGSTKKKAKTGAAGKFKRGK
# UniProt O75369, whole entry, looked up: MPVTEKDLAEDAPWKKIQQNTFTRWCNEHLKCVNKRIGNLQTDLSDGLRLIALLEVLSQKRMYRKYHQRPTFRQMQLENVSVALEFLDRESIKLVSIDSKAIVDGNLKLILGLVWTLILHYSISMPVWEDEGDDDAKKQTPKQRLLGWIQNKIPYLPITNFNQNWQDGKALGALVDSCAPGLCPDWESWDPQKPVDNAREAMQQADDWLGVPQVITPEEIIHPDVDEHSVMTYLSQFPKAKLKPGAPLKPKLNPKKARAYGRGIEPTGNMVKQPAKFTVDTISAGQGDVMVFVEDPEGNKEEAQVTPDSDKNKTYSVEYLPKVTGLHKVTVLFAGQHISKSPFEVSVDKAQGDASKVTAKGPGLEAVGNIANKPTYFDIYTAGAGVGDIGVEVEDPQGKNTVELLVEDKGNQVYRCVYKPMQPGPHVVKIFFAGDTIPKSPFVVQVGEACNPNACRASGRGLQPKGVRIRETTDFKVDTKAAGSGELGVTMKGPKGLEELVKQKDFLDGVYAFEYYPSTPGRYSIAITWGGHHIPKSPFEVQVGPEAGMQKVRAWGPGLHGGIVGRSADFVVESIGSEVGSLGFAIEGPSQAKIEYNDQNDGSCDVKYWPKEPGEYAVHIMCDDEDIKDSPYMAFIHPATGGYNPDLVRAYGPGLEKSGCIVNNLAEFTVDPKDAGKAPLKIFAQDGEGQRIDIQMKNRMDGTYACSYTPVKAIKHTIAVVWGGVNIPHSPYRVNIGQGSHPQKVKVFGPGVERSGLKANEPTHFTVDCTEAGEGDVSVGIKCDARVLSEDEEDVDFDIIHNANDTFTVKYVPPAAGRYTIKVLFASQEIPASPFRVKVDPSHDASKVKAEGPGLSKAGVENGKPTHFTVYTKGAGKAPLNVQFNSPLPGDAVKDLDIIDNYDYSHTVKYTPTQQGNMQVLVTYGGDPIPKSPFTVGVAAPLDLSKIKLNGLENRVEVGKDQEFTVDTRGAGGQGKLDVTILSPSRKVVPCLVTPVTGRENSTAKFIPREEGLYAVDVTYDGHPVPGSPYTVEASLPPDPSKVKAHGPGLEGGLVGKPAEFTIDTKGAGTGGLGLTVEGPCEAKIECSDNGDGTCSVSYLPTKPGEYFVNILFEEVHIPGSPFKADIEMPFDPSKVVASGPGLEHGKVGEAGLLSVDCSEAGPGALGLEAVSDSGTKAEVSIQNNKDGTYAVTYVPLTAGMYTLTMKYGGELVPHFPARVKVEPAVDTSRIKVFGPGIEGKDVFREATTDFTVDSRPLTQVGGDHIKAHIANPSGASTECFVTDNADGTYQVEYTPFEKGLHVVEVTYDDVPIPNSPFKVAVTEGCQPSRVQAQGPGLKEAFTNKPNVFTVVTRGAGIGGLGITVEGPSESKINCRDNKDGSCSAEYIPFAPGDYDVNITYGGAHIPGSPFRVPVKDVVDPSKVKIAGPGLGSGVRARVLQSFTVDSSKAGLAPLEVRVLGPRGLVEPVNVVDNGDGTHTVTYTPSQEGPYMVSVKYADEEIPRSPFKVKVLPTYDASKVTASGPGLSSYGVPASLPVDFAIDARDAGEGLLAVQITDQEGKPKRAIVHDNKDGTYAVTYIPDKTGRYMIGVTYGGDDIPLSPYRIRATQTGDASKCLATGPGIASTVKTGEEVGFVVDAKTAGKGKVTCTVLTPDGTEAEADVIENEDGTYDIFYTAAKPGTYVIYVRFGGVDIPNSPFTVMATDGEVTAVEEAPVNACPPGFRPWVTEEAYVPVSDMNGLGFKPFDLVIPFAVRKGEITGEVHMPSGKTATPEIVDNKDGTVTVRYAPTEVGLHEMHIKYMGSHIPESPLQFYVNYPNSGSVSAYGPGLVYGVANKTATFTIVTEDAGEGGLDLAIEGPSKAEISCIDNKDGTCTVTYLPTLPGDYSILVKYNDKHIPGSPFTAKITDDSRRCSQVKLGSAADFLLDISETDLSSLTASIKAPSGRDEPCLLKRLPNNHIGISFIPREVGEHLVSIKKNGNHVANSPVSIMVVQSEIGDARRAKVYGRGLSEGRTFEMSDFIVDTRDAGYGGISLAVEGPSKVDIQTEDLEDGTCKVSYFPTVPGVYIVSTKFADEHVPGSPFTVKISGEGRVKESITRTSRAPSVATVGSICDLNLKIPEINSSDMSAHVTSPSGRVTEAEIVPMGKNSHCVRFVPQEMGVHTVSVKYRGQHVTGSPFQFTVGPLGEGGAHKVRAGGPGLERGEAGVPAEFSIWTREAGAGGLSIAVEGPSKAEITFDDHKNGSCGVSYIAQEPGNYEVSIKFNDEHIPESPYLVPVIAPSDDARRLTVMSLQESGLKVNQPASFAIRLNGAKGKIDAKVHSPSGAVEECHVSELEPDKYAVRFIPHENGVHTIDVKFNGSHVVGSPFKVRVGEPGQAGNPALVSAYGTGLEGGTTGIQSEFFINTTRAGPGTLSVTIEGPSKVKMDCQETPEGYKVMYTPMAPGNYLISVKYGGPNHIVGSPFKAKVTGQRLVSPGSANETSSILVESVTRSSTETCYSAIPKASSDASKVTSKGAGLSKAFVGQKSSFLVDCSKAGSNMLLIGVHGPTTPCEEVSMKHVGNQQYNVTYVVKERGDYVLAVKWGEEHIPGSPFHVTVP
# UniProt Q96HJ9: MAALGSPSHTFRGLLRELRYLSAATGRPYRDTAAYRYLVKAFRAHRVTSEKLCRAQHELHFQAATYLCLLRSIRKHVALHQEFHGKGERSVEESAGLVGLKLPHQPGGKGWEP
# UniProt Q9Y5Y0: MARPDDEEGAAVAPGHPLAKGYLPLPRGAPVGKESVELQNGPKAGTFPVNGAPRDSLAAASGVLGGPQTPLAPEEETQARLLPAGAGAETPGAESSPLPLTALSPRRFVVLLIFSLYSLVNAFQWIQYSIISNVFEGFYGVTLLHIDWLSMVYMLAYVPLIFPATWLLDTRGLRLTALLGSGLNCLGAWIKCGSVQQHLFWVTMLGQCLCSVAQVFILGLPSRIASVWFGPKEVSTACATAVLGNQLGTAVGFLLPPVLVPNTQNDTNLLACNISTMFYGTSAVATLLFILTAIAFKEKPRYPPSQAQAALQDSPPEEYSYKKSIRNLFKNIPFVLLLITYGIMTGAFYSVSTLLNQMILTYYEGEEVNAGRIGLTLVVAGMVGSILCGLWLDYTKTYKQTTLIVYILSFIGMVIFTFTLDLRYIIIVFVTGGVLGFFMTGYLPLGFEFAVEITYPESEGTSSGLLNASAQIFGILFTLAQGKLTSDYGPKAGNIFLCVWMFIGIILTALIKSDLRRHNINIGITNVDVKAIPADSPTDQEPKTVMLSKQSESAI
# UniProt P12318: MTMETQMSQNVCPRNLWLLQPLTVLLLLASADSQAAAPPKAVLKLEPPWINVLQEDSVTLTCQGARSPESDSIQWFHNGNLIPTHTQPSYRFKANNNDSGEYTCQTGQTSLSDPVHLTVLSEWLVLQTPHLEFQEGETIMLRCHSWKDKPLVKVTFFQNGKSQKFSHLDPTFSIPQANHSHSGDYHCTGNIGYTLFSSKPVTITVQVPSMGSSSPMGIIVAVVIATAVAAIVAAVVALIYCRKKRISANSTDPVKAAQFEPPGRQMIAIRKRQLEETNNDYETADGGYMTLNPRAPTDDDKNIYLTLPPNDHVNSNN
# UniProt Q96IG2: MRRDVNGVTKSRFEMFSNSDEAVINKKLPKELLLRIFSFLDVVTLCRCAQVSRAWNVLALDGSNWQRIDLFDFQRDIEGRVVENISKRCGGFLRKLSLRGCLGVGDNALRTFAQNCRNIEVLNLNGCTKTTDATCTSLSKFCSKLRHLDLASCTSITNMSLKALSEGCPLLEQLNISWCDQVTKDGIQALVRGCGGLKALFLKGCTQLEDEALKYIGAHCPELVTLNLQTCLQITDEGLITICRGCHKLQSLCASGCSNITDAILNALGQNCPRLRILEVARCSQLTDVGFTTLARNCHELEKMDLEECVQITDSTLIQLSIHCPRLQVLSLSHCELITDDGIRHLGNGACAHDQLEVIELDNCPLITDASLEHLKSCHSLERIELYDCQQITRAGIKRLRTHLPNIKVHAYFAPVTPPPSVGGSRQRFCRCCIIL
# UniProt P0C5J1: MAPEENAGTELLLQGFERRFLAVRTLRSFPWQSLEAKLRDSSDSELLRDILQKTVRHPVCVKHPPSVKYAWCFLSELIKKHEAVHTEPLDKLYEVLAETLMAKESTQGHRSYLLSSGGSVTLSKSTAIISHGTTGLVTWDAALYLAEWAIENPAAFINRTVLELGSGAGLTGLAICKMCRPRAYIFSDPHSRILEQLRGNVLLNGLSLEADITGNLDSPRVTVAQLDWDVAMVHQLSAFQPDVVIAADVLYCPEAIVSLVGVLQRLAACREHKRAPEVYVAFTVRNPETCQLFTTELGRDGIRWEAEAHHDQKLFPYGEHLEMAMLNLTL
# Compound: C1=CC=C(C=C1)[C@H](COC2=CC3=C(C=C2)NC(=O)N3)NC(=O)C4=CC=CN(C4=O)CC5=CC(=C(C=C5)F)F
# Test: log2 fold change, soluble protein after heating vs DMSO (PISA); higher = thermal stabilisation; K562 lysate, 10 uM; active = over 0.2 and 3.5 SD of the protein, either way, in both replicates (recomputed)
# How it was run: (§1)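 Dounce homogenisation of K562 pellets in PBS pH 7.4 with 1 mM MgCl2 produced a crude extract, used at 1 mg/mL protein. Exposure to 10 μM compound lasted 30 min, and aliquots were then heated for 3 min across 48°C-58°C, pooled and brought to 0.5% NP-40 at 4°C. The supernatant after 21,000xg for 90 min was quantified by TMTpro 16plex LC-MS/MS with channel sums equalised. Duplicate values are given as log-two fold change in thermal stability relative to solvent controls.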
row,Target,log2 fold change
1,FGGY isoform 3 (UniProt Q96C11),inactive: -0.042
2,FHL3 (UniProt Q13643),inactive: 0.083
3,FEZ2 isoform 2 (UniProt Q9UHY8),inactive: 0.042
4,FARP1 isoform 2 (UniProt Q9Y4F1),inactive: 0.093
5,FBL (UniProt P22087),inactive: 0.034
6,FN3K (UniProt Q9H479),inactive: 0.023
7,FERMT3 (UniProt Q86UX7),inactive: -0.012
8,FNBP1L (UniProt Q5T0N5),inactive: -0.082
9,FDXR isoform 7 (UniProt P22570),inactive: 0.005
10,FDX2 (UniProt Q6P4F2),inactive: -0.039
11,FKBP15 (UniProt Q5T1M5),inactive: 0.013
12,FAM89A (UniProt Q96GI7),inactive: 0.104
13,FLT4 (UniProt P35916),inactive: 0.006
14,FIG4 (UniProt Q92562),inactive: -0.107
15,FEN1 (UniProt P39748),inactive: -0.029
16,FAM98A (UniProt Q8NCA5),inactive: 0.017
17,FMNL3 (UniProt Q8IVF7),inactive: -0.052
18,FITM2 (UniProt Q8N6M3),inactive: -0.119
19,FLNB isoform 8 (UniProt O75369),inactive: -0.002

row,Target,log2 fold change
1,FH (UniProt P07954),inactive: -0.004
2,FMC1 (UniProt Q96HJ9),inactive: -0.072
3,FAM98B (UniProt Q52LJ0),inactive: 0.012
4,FBXW8 (UniProt Q8N3Y1),inactive: 0.105
5,FBXW9 (UniProt Q5XUX1),inactive: 0.05
6,FLVCR1 (UniProt Q9Y5Y0),inactive: -0.076
7,FCGR2A (UniProt P12318),inactive: 0.024
8,FLOT1 (UniProt O75955),inactive: 0.012
9,FBXO42 (UniProt Q6P3S6),inactive: 0.079
10,FBXL20 (UniProt Q96IG2),inactive: 0.058
11,FBXL12 (UniProt Q9NXK8),inactive: -0.058
12,FGD6 (UniProt Q6ZV73),inactive: -0.595
13,FBRS (UniProt J3KNZ9),inactive: -0.1
14,FAM86B2 (UniProt P0C5J1),inactive: -0.047
15,FANCB (UniProt Q8NB91),inactive: 0.007
16,FKBP8 isoform 2 (UniProt Q14318),inactive: -0.061
17,FECH isoform 2 (UniProt P22830),inactive: 0.06
18,FANCI (UniProt Q9NVI1),inactive: -0.051
19,FKBPL (UniProt Q9UIM3),inactive: 0.062

# Compound: CC1=C(SC2=C1C(=N[C@H](C3=NN=C(N32)C)CC(=O)N)C4=CC=C(C=C4)Cl)C
# Test: as above
# How it was run: as §1
row,Target,log2 fold change
1,FGGY isoform 3 (UniProt Q96C11),inactive: -0.148
2,FHL3 (UniProt Q13643),inactive: -0.034
3,FEZ2 isoform 2 (UniProt Q9UHY8),inactive: 0.023
4,FARP1 isoform 2 (UniProt Q9Y4F1),inactive: 0.005
5,FBL (UniProt P22087),inactive: 0.002
6,FN3K (UniProt Q9H479),inactive: 0.015
7,FERMT3 (UniProt Q86UX7),inactive: 0.012
8,FNBP1L (UniProt Q5T0N5),inactive: -0.009
9,FDXR isoform 7 (UniProt P22570),inactive: -0.004
10,FDX2 (UniProt Q6P4F2),inactive: 0.021
11,FKBP15 (UniProt Q5T1M5),inactive: -0.001
12,FAM89A (UniProt Q96GI7),inactive: 0.038
13,FLT4 (UniProt P35916),inactive: -0.04
14,FIG4 (UniProt Q92562),inactive: -0.108
15,FEN1 (UniProt P39748),inactive: 0.029
16,FAM98A (UniProt Q8NCA5),inactive: 0.002
17,FMNL3 (UniProt Q8IVF7),inactive: -0.061
18,FITM2 (UniProt Q8N6M3),inactive: 0.048
19,FLNB isoform 8 (UniProt O75369),inactive: 0.018

row,Target,log2 fold change
1,FH (UniProt P07954),inactive: 0.031
2,FMC1 (UniProt Q96HJ9),inactive: -0.112
3,FAM98B (UniProt Q52LJ0),inactive: 0.004
4,FBXW8 (UniProt Q8N3Y1),inactive: -0.036
5,FBXW9 (UniProt Q5XUX1),inactive: 0.016
6,FLVCR1 (UniProt Q9Y5Y0),inactive: -0.026
7,FCGR2A (UniProt P12318),inactive: 0.013
8,FLOT1 (UniProt O75955),inactive: 0.01
9,FBXO42 (UniProt Q6P3S6),inactive: -0.02
10,FBXL20 (UniProt Q96IG2),inactive: -0.049
11,FBXL12 (UniProt Q9NXK8),inactive: 0.131
12,FGD6 (UniProt Q6ZV73),inactive: 0.057
13,FBRS (UniProt J3KNZ9),inactive: 0.057
14,FAM86B2 (UniProt P0C5J1),inactive: 0.011
15,FANCB (UniProt Q8NB91),inactive: -0.032
16,FKBP8 isoform 2 (UniProt Q14318),inactive: 0.012
17,FECH isoform 2 (UniProt P22830),inactive: -0.101
18,FANCI (UniProt Q9NVI1),inactive: -0.009
19,FKBPL (UniProt Q9UIM3),inactive: 0.007
